These results are taken from paper PMC9830426.

One test concerns the target T1, FLAG-tagged FAM3C (UniProt Q92520).
T1 sequence: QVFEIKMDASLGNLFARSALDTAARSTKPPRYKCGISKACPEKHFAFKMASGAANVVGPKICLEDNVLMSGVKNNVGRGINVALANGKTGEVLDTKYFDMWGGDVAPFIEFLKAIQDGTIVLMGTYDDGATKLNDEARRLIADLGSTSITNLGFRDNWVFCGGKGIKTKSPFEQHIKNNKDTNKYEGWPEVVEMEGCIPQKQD
In words: co-IP; HEK293T cells co-transfected with FLAG-FAM3C and HA-RalA; immunoprecipitation with anti-FLAG M2 magnetic beads, immunoblot. (A western blot detects proteins with antibodies after separation by electrophoresis.)

Test [1] addresses T2, FAM3C overexpressed in A549 cells (FAM3C_ox) (UniProt Q92520).
T2 sequence: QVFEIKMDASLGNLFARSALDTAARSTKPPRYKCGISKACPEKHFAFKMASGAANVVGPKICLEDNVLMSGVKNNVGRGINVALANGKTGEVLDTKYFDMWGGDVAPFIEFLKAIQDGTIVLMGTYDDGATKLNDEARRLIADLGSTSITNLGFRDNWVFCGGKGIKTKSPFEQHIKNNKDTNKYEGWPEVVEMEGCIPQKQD
In words: proximity ligation; Duolink in situ PLA on A549 cells fixed with 4% paraformaldehyde; incubations at 37 °C.

The target of test [2] is T3, endogenous FAM3C (human (endogenous in SKMES-1 and A549)) (UniProt Q92520).
T3 sequence: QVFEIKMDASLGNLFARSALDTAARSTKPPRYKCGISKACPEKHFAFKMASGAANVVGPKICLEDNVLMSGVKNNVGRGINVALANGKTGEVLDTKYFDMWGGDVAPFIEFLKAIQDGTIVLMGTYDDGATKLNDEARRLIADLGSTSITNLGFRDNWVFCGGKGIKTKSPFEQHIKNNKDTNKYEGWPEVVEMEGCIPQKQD
Described as above.

Test [3] addresses T3, endogenous FAM3C (human (endogenous in SKMES-1 and A549)). In words: co-IP; endogenous proteins in SKMES-1 cells; immunoprecipitation with anti-FAM3C antibody, immunoblot with FAM3C and RalA antibodies.

These are yes or no findings as the source states them, for the method shown. In cells and extracts the contact can be indirect. Some entries that bind do so weakly or less than the wild type. For some of these results: Sequences can lack the tags named with a protein.

B1: HA-tagged RalA (protein, UniProt P11233 1-206)
chain: MAANKPKGQNSLALHKVIMVGSGGVGKSALTLQFMYDEFVEDYEPTKADSYRKKVVLDGEEVQIDILDTAGQEDYAAIRDNYFRSGEGFLCVFSITEMESFAATADFREQILRVKEDENVPFLLVGNKSDLEDKRQVSVEEAKNRAEQWNVNYVETSAKTRANVDKVFFDLMREIRARKMEDSKEKNGKKKRKSLAKRIRERCCIL
With B1, the binding result with FLAG-tagged FAM3C is given as “binds”.

B2: endogenous RalA (protein, UniProt P11233 1-206)
chain: MAANKPKGQNSLALHKVIMVGSGGVGKSALTLQFMYDEFVEDYEPTKADSYRKKVVLDGEEVQIDILDTAGQEDYAAIRDNYFRSGEGFLCVFSITEMESFAATADFREQILRVKEDENVPFLLVGNKSDLEDKRQVSVEEAKNRAEQWNVNYVETSAKTRANVDKVFFDLMREIRARKMEDSKEKNGKKKRKSLAKRIRERCCIL
Turning to B2, the binding result in test [1], in test [2] and in test [3] was “binds” throughout.
